Results reported in paper PMC10329790.
These are yes or no findings as the source states them, for the method shown. Binding seen in cells or lysates may run through a third protein. Some entries that bind do so weakly or less than the wild type.

By UniProt entry, the sequences of proteins in these tests, tags left out.
UniProt Q15672: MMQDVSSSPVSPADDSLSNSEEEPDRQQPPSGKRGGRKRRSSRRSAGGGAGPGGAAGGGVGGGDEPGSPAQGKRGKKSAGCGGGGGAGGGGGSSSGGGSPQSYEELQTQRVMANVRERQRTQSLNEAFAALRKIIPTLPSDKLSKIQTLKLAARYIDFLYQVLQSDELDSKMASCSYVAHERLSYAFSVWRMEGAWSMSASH

Molecular target: TWIST1 (UniProt Q15672)
Assay: co-IP; HCC827 cells transfected with HA-USP51, Flag-TWIST1 and/or His-ubiquitin plasmids for 24 h, in the presence of MG132; anti-Flag antibody on protein A/G beads, lysate incubated 4 °C 6 h; buffer 150 mmol/L NaCl, 50 mmol/L Tris-HCl pH 7.4; Western blotting

B1: USP51 (enzyme, UniProt Q70EK9 1-711)
chain: MAQVRETSLPSGSGVRWISGGGGGASPEEAVEKAGKMEEAAAGATKASSRREAEEMKLEPLQEREPAPEENLTWSSSGGDEKVLPSIPLRCHSSSSPVCPRRKPRPRPQPRARSRSQPGLSAPPPPPARPPPPPPPPPPPAPRPRAWRGSRRRSRPGSRPQTRRSCSGDLDGSGDPGGLGDWLLEVEFGQGPTGCSHVESFKVGKNWQKNLRLIYQRFVWSGTPETRKRKAKSCICHVCSTHMNRLHSCLSCVFFGCFTEKHIHKHAETKQHHLAVDLYHGVIYCFMCKDYVYDKDIEQIAKETKEKILRLLTSTSTDVSHQQFMTSGFEDKQSTCETKEQEPKLVKPKKKRRKKSVYTVGLRGLINLGNTCFMNCIVQALTHIPLLKDFFLSDKHKCIMTSPSLCLVCEMSSLFHAMYSGSRTPHIPYKLLHLIWIHAEHLAGYRQQDAHEFLIAILDVLHRHSKDDSGGQEANNPNCCNCIIDQIFTGGLQSDVTCQACHSVSTTIDPCWDISLDLPGSCATFDSQNPERADSTVSRDDHIPGIPSLTDCLQWFTRPEHLGSSAKIKCNSCQSYQESTKQLTMKKLPIVACFHLKRFEHVGKQRRKINTFISFPLELDMTPFLASTKESRMKEGQPPTDCVPNENKYSLFAVINHHGTLESGHYTSFIRQQKDQWFSCDDAIITKATIEDLLYSEGYLLFYHKQGLEKD
With B1 the binding was “binds”.
